These are yes or no findings as the source states them, for the method shown. Binding seen in cells or lysates may run through a third protein. Some results given as binding are weak or reduced against the parent protein; the word gives no strength. Sequences can lack the tags named with a protein.
T1: GFP-S-tag-CCDC6 (WT) (UniProt Q16204)
T1 sequence: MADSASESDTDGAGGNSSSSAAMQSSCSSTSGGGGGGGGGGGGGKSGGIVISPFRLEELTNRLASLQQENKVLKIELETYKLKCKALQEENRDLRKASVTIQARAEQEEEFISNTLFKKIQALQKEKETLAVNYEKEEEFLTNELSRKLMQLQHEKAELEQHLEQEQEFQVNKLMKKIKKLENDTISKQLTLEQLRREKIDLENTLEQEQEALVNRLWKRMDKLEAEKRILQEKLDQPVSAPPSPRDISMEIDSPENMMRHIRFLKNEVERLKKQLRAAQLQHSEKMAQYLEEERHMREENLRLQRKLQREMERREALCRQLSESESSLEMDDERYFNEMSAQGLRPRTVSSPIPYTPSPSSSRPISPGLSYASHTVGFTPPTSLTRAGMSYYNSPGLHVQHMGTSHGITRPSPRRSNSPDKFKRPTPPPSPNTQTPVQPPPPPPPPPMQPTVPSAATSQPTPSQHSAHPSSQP


molecular target: T1, GFP-S-tag-CCDC6 (WT); experiment: pull-down; S-tag pull-down with S-protein agarose resin from HeLa-Kyoto GFP-S-tag-CCDC6 cells (and HeLa-Kyoto control cells) transfected with myc-tagged CCDC6 mutants or empty vector; isolated proteins immunoblotted with anti-myc and anti-GFP

Row | binding | Binder
1 | binds | myc-tagged CCDC6 mutant L217P (protein, UniProt Q16204 1-474) MADSASESDTDGAGGNSSSSAAMQSSCSSTSGGGGGGGGGGGGGKSGGIVISPFRLEELTNRLASLQQENKVLKIELETYKLKCKALQEENRDLRKASVTIQARAEQEEEFISNTLFKKIQALQKEKETLAVNYEKEEEFLTNELSRKLMQLQHEKAELEQHLEQEQEFQVNKLMKKIKKLENDTISKQLTLEQLRREKIDLENTLEQEQEALVNRPWKRMDKLEAEKRILQEKLDQPVSAPPSPRDISMEIDSPENMMRHIRFLKNEVERLKKQLRAAQLQHSEKMAQYLEEERHMREENLRLQRKLQREMERREALCRQLSESESSLEMDDERYFNEMSAQGLRPRTVSSPIPYTPSPSSSRPISPGLSYASHTVGFTPPTSLTRAGMSYYNSPGLHVQHMGTSHGITRPSPRRSNSPDKFKRPTPPPSPNTQTPVQPPPPPPPPPMQPTVPSAATSQPTPSQHSAHPSSQP
2 | binds | myc-tagged CCDC6 mutant A226S (protein, UniProt Q16204 1-474) MADSASESDTDGAGGNSSSSAAMQSSCSSTSGGGGGGGGGGGGGKSGGIVISPFRLEELTNRLASLQQENKVLKIELETYKLKCKALQEENRDLRKASVTIQARAEQEEEFISNTLFKKIQALQKEKETLAVNYEKEEEFLTNELSRKLMQLQHEKAELEQHLEQEQEFQVNKLMKKIKKLENDTISKQLTLEQLRREKIDLENTLEQEQEALVNRLWKRMDKLESEKRILQEKLDQPVSAPPSPRDISMEIDSPENMMRHIRFLKNEVERLKKQLRAAQLQHSEKMAQYLEEERHMREENLRLQRKLQREMERREALCRQLSESESSLEMDDERYFNEMSAQGLRPRTVSSPIPYTPSPSSSRPISPGLSYASHTVGFTPPTSLTRAGMSYYNSPGLHVQHMGTSHGITRPSPRRSNSPDKFKRPTPPPSPNTQTPVQPPPPPPPPPMQPTVPSAATSQPTPSQHSAHPSSQP
3 | binds | myc-tagged CCDC6 mutant P442S (protein, UniProt Q16204 1-474) MADSASESDTDGAGGNSSSSAAMQSSCSSTSGGGGGGGGGGGGGKSGGIVISPFRLEELTNRLASLQQENKVLKIELETYKLKCKALQEENRDLRKASVTIQARAEQEEEFISNTLFKKIQALQKEKETLAVNYEKEEEFLTNELSRKLMQLQHEKAELEQHLEQEQEFQVNKLMKKIKKLENDTISKQLTLEQLRREKIDLENTLEQEQEALVNRLWKRMDKLEAEKRILQEKLDQPVSAPPSPRDISMEIDSPENMMRHIRFLKNEVERLKKQLRAAQLQHSEKMAQYLEEERHMREENLRLQRKLQREMERREALCRQLSESESSLEMDDERYFNEMSAQGLRPRTVSSPIPYTPSPSSSRPISPGLSYASHTVGFTPPTSLTRAGMSYYNSPGLHVQHMGTSHGITRPSPRRSNSPDKFKRPTPPPSPNTQTPVQPPSPPPPPPMQPTVPSAATSQPTPSQHSAHPSSQP

Source: PMC12833555
